According to patent US10106778B2, “Selective targeting of cancer stem cells” (Whitehead Institute for Biomedical Research, priority 2012, dated 2018):
Some of these results come from one statement about several compounds together. At least one structure is not confirmed: it was looked up by name or label, or the drawing left a doubt.

Tests used:
[1] = tested on: NAMEC-Tom-Ras and HMLE-GFP-Ras cells; assay: Co-mixed NAMEC-Tom-Ras (CSC-enriched) and HMLE-GFP-Ras (CSC-depleted) cells, kinase inhibition, FACS; type: cell-based, human; conditions: at LC50, co-mixed cells
Experimental: Kinase inhibitors and other chemical compounds were obtained from various sources listed below. These were dissolved or diluted in DMSO. To set up the screen, 75,000 NAMEC-Tom and 15,000 HMLE-GFP cells were seeded into each well of a 6-well tissue culture plate. The following day, spent media was replaced with 3 ml of fresh media. Inhibitors were added to achieve the desired range of concentrations. For control treatment, DMSO was added. Fresh media containing inhibitors were replaced daily during the six day period. For analysis, cells were trypsinized with 1 ml 0.15% trypsin, diluted with 1 ml serum-containing media and fixed with 1 ml of 4% paraformaldehyde. FACS analysis was performed to analyze the proportion of surviving cells relative to DMSO-treated control for NAMEC-Tom or HMLE-GFP cells. […]
Kinase inhibitors and other chemical compounds were obtained from various sources listed below. […] To assess the fraction of cells undergoing apoptosis, cells were exposure to agents for three days without fresh media and then analyzed with Annexin V-APC (BD Biosciences).
Having determined that NAMEC-Ras cells were enriched for CSCs, we mixed NAMEC-Ras cells labeled with tdTomato (NAMEC-Tom-Ras) and HMLE-Ras cells labeled with GFP (HMLE-GFP-Ras) and re-tested the effects of kinase inhibition as described above. […]

p-FRA1^S265 = assay: Western blot of FRA1 phosphorylation in NAMECs; type: cell-based, human; conditions: within 30 min of treatment
Experimental: To obtain protein extracts, cells were scraped from culture dishes in chilled PBS, centrifuged at 450×g for 4 min at 4° C., washed again in PBS, and incubated for 20 min in ice cold lysis buffer containing freshly added protease inhibitors (0.5 mM phenylmethylsulfonyl fluoride, 10 μg/ml leupeptin, 2 μg/ml aprotonin). Lysates were cleared by centrifugation at 12,100×g, 4° C. for 10 min and the supernatant was snap frozen in liquid nitrogen. Protein concentrations were determined using Bradford Dye (Bio-Rad). 30 μg total protein was separated by SDS-PAGE on NuPAge gels (Invitrogen), and transferred to Hybond-P PVDF membrane (GE Healthcare). The membrane was probed with specific primary antibodies and antibody-protein complex detected by HRP-conjugated antibodies and ECL-Plus (Amersham Biosciences).
FRA1 is a member of the Fos family of transcription factors, which is also comprised of c-Fos, FosB and Fra2. Together with the Jun family of transcription factors composed of c-Jun, JunB and JunD, individual members of the Fos and Jun family associate with one another to form heterodimeric activator protein-1 (AP-1) complexes that bind and transcriptionally regulate target gene expression when phosphorylated (Eferl and Wagner, 2003).
We assessed whether the observed increased p-FRA1 activity in the mesenchymal cells could be further augmented by elevated ERK signaling during EMT. […]

## CN(C)CCCn1cc(C2=C(c3c[nH]c4ccccc34)C(=O)NC2=O)c2ccccc21 [bisindolylmaleimide I]
[1]
  heightened (differential) sensitivity of NAMEC-Tom-Ras relative to HMLE-GFP-Ras cells: 6.95-7 fold
p-FRA1^S265
  downregulation of p-FRA1^S265: 8.3-9.5 fold
